These are yes or no findings as the source states them, for the method shown. Some entries that bind do so weakly or less than the wild type.
What was measured:
[1] = target: Aβ(1-42) globulomer (human); experiment: competition ELISA on plate-coated A-Beta antigen (1-42); competitor: biotinylated mouse 8F5 antibody (tracer, per legend paragraph 41); Neutra Avidin HRP/TMB, O.D. 450 nm
[2] = target: Aβ(1-42) globulomer (human); experiment: competition ELISA (FIG. 3)
[3] = target: Aβ(1-42) globulomer (human); experiment: dot blot immunoassay

binding [1]: binds
binding [2]: binds
binding [3]: binds
B1: humanized monoclonal antibody 8F5hum8 (antibody, V domains shown)
VH: EVQLVESGGGLVQPGGSLRLSCAASGFTFSSYGMSWVRQAPGKGLELVASINSNGGSTYYPDSVKGRFTISRDNAKNTLYLQMNSLRAEDTAVYYCASGDYWGQGTLVTVSS
VL: DIVMTQSPLSLPVTPGEPASISCRSSQSLVYSNGDTYLHWYLQKPGQSPKLLIYKVSNRFSGVPDRFSGSGSGTDFTLKISRVEAEDVGVYYCSQSTHVPWTFGGGTKVEIKR
